The record followed here is publication PMC12198292, “Advancing in vitro assessment of iodide uptake inhibition: integrating a novel biotransformation pretreatment step” (Archives of Toxicology, 2025).

Data set [1] has as its system HEK293T NIS C cells. Kind of data set: Neutral red uptake viability assay, HEK293T NIS C. The conditions noted are these: mean±SD, 2 h exposure.
Data set [2] relates to FRTL-5 cells. Kind of data set: Neutral red uptake viability assay, FRTL-5. The conditions noted are these: mean±SD, 2 h exposure.

Regarding `Cc1cc(NS(=O)(=O)c2ccc(N)cc2)no1` [SMX, Sulfamethoxazole, reference compound], in data set [1], the “NR IC20 HEK293T NISC” value is “n.e. / n.e”. For the same compound, in data set [2], the “NR IC20 FRTL-5” value is “n.e. / n.e”.
